This is an account of results in publication PMC11618438 (ACS Omega, 2024).

Usually IC50 stands for the midpoint of a concentration-inhibition curve.

In assay [1] the test system is ERα expressed in mouse uterus. The conditions noted are these: read-out: IC50, competition binding, [125I]-estradiol; cited from earlier work.
Assay [2] relates to T47D cells. In words: Cell survival by MTT assay, T47D. The conditions noted are these: Homo sapiens, read-out: IC50, MTT assay. On the technique in general: Tetrazolium assays rely on reduction of a dye to a coloured formazan, in cell work by metabolically active cells.

In the case of `CC/C(=C(\c1ccccc1)c1ccc(OCCN(C)C)cc1)c1ccccc1` [tamoxifen], the IC50 in assay [1] was 0.01 µM; in assay [2] it was 3.1 µM.
